Values joined by “and” are separate entries in the source; they are usually repeats but may differ in a detail not shown here. Equal values may be shown once. Where a name gives a salt, the structure may show the parent alone. ± gives the standard deviation of the averaged measurements. The list shows a part of the results. Single values are uncertain, as repeats are few or missing.
System: RAW 264.7
Assay: HMGB1-induced TNF-alpha production relative to HMGB1-stimulated control; higher = more TNF-alpha secretion (less inhibition)
Conditions: stimulus: HMGB1 5 ug/ml, 18 h
[1] = compound concentration: 1 ug/ml

Compound	HMGB1-induced TNF-alpha production (compound concentration: 3 uM)	HMGB1-induced TNF-alpha production [1]
CC(/C=C/c1cccc(Oc2ccc(F)cc2)c1)N(O)C(N)=O (stereo not given)	85.6%	–
c1ccc2c3c([nH]c2c1)C1C2CCC(C4CCCNC42)N1CC3 (stereo not given) [Nitrarine dihydrochloride]	121%	–
CCCCN1CCCC1CNC(=O)c1cc(C#N)c2ccccc2c1OC (stereo not given) [Nafadotride]	100%	–
Cc1ccc([N+](=O)[O-])cc1S(=O)(=O)N(C)C	97.3%	–
O=S(=O)(O)c1cc(O)ccc1O [Ethamsylate]	98.8%	–
Cc1c(O)c(=O)ccn1C	91.9% and 89.2%	–
CC(C)C[C@H](NP(=O)(O)O[C@H]1O[C@H](C)[C@@H](O)[C@H](O)[C@@H]1O)C(=O)N[C@@H](Cc1c[nH]c2ccccc12)C(=O)O [Phosphoramidon disodium]	103%	–
c1ccc([C@H]2CN3CCSC3=N2)cc1	83.2%	–
c1ccc([C@H]2CN3CCSC3=N2)cc1 [Levamisole hydrochloride]	94%	–
c1ccc([C@H]2CN3CCSC3=N2)cc1 [Levamisole]	112%	–
CCC(=O)O[C@]1(C(=O)CCl)[C@@H](C)C[C@H]2[C@@H]3CCC4=CC(=O)C=C[C@]4(C)[C@@]3(F)[C@@H](O)C[C@@]21C [Clobetasol propionate]	35.6%	–
CCC(=O)O[C@]1(C(=O)CCl)[C@@H](C)C[C@H]2[C@@H]3CCC4=CC(=O)C=C[C@]4(C)[C@@]3(F)[C@@H](O)C[C@@]21C [Clobetasol Propionate]	46.4%	–
CCC(=O)O[C@]1(C(=O)CCl)[C@@H](C)C[C@H]2[C@@H]3CCC4=CC(=O)C=C[C@]4(C)[C@@]3(F)[C@@H](O)C[C@@]21C	41.2%	–
O=C1C[C@@H](c2ccc(O)cc2)Oc2cc(O)cc(O)c21 [Naringenin]	–	77.2%
O=C1OCCN1/N=C/c1ccc([N+](=O)[O-])o1	73.9%	–
O=C1OCCN1/N=C/c1ccc([N+](=O)[O-])o1 [Furazolidone]	103%	–
NC(=O)c1ccc([N+](=O)[O-])cc1Cl	97.8 ± 11%	–
COc1ccc(-c2cc3ncc(C)n3c(Nc3ncccc3C(N)=O)n2)cc1OC [BAY 61-3606 hydrochloride hydrate]	86.9%	–
Oc1ccc([C@@H]2CNCc3sccc32)cc1O	105%	–
Nc1nc2n[nH]nc2c(=O)[nH]1 [Azaguanine-8]	159%	–
Nc1nc2c(nc(Br)n2C2OC3COP(=O)(O)O[C@@H]3C2O)c(=O)[nH]1 (stereo not given in full) [8-Bromo-cGMP sodium]	94.2%	–
CN(C)c1nc(N(C)C)nc(N(C)C)n1	95.2 ± 1.5%	–
CN(C)c1nc(N(C)C)nc(N(C)C)n1 [Altretamine]	79.5 ± 21%	–
CC(C)NCC(O)c1ccc2ccccc2c1 (stereo not given) [Pronethalol hydrochloride]	102%	–
CC(C)NCC(O)c1ccc2ccccc2c1 (stereo not given) [Pronethalol]	91.5%	–

In another format: entries from further up

| Compound | HMGB1-induced TNF-alpha production (compound concentration: 3 uM) | HMGB1-induced TNF-alpha production [1] |
| --- | --- | --- |
| CCC(=O)O[C@]1(C(=O)CCl)[C@@H](C)C[C@H]2[C@@H]3CCC4=CC(=O)C=C[C@]4(C)[C@@]3(F)[C@@H](O)C[C@@]21C | 41.2% | – |
| O=C1C[C@@H](c2ccc(O)cc2)Oc2cc(O)cc(O)c21 [Naringenin] | – | 77.2% |

Following part.

Compound	HMGB1-induced TNF-alpha production (compound concentration: 3 uM)	HMGB1-induced TNF-alpha production [1]
CC(C)NCC(O)c1ccc2ccccc2c1 (stereo not given)	86.8%	–
O=C(O)c1cc(-c2ccccc2)nc2ccccc12	119%	–
CC(=O)O[C@]1(C(C)=O)CC[C@H]2[C@@H]3C[C@H](C)C4=CC(=O)CC[C@]4(C)[C@H]3CC[C@@]21C [Medroxyprogesterone 17-Acetate]	96.9%	–
CC(=O)O[C@]1(C(C)=O)CC[C@H]2[C@@H]3C[C@H](C)C4=CC(=O)CC[C@]4(C)[C@H]3CC[C@@]21C	87%	–
C[C@H]1C[C@@H]2[C@H]([C@@H](O)C[C@@]3(C)[C@H]2CC[C@]3(O)C(=O)CO)[C@@]2(C)C=CC(=O)C=C12 [Methylprednisolone, 6-alpha]	31.1%	–
C[C@H]1C[C@@H]2[C@H]([C@@H](O)C[C@@]3(C)[C@H]2CC[C@]3(O)C(=O)CO)[C@@]2(C)C=CC(=O)C=C12	42.2%	–
C[C@H]1C[C@@H]2[C@H]([C@@H](O)C[C@@]3(C)[C@H]2CC[C@]3(O)C(=O)CO)[C@@]2(C)C=CC(=O)C=C12 [Methylprednisolone]	40.7%	–
NC(=O)C(c1ccccc1)(c1ccccc1)[C@@H]1CCN(CCc2ccc3c(c2)CCO3)C1	93.5%	–
CCCNCC(O)COc1ccccc1C(=O)CCc1ccccc1 (stereo not given) [Propafenone]	88.8%	–
CCCNCC(O)COc1ccccc1C(=O)CCc1ccccc1 (stereo not given)	79.1%	–
CCCNCC(O)COc1ccccc1C(=O)CCc1ccccc1 (stereo not given) [Propafenone hydrochloride]	80.6 ± 44%	–
CCCCCCCCCCCCCCCCCC(=O)OC(CC(=O)O)C[N+](C)(C)C (racemic) [DL-Stearoylcarnitine chloride]	98.1%	–
COc1cc(/C=C(\C#N)C(=O)Nc2nnc(C(F)(F)F)s2)ccc1OCc1ccc(C(F)(F)F)cc1C(F)(F)F	97.9%	–
O=[N+]([O-])c1cccc2cn[nH]c12 [7-Nitroindazole]	118%	–
O=[N+]([O-])c1cccc2cn[nH]c12	102 ± 5.7%	–
COc1ccccc1OCC(O)CN1CCN(CC(=O)Nc2c(C)cccc2C)CC1 (stereo not given) [Ranolazine dihydrochloride]	108 ± 2.8%	–
COc1ccccc1OCC(O)CN1CCN(CC(=O)Nc2c(C)cccc2C)CC1 (stereo not given) [Ranolazine]	112 ± 41%	–
COc1ccccc1OCC(O)CN1CCN(CC(=O)Nc2c(C)cccc2C)CC1 (stereo not given)	102%	–
COc1cc([C@@H]2c3cc4c(cc3[C@@H](O[C@@H]3O[C@@H]5CO[C@@H](C)O[C@H]5[C@H](O)[C@H]3O)[C@H]3COC(=O)[C@H]23)OCO4)cc(OC)c1O	106 ± 2.4%	–
COc1cc([C@@H]2c3cc4c(cc3[C@@H](O[C@@H]3O[C@@H]5CO[C@@H](C)O[C@H]5[C@H](O)[C@H]3O)[C@H]3COC(=O)[C@H]23)OCO4)cc(OC)c1O [Etoposide; VP-16-213]	–	99.4%
COc1cc([C@@H]2c3cc4c(cc3[C@@H](O[C@@H]3O[C@@H]5CO[C@@H](C)O[C@H]5[C@H](O)[C@H]3O)[C@H]3COC(=O)[C@H]23)OCO4)cc(OC)c1O [Etoposide]	99.1 ± 8.1%	–
O=c1cc(-c2ccccc2O)oc2c1ccc1ccccc12	–	51.6%
CCn1ccnc1CC1COc2ccccc2O1 (stereo not given) [Imiloxan hydrochloride]	88.9%	–
O=c1cc(-c2cccc(O)c2)oc2cc(O)ccc12	–	75.7%
CNC(C)C1CCC(N)C(OC2C(N)CC(N)C(OC3OCC(C)(O)C(NC)C3O)C2O)O1 (stereo not given) [Gentamycin]	99.9%	–
